According to publication PMC10294335:
These are yes or no findings as the source states them, for the method shown. For part of these data: In cells and extracts the contact can be indirect. Some binding calls cover weakened binding; strength is not graded here.

The chains behind the UniProt entries cited, without tags or fusion partners.
UniProt P05412: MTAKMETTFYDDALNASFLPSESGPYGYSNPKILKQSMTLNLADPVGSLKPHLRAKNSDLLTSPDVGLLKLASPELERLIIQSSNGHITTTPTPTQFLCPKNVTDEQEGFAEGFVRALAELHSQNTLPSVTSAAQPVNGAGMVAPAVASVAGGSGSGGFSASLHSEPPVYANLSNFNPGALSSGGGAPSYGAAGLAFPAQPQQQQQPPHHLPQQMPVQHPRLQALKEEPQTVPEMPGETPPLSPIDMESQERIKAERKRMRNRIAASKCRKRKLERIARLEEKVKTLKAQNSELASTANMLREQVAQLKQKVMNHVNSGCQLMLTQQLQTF
UniProt P35222: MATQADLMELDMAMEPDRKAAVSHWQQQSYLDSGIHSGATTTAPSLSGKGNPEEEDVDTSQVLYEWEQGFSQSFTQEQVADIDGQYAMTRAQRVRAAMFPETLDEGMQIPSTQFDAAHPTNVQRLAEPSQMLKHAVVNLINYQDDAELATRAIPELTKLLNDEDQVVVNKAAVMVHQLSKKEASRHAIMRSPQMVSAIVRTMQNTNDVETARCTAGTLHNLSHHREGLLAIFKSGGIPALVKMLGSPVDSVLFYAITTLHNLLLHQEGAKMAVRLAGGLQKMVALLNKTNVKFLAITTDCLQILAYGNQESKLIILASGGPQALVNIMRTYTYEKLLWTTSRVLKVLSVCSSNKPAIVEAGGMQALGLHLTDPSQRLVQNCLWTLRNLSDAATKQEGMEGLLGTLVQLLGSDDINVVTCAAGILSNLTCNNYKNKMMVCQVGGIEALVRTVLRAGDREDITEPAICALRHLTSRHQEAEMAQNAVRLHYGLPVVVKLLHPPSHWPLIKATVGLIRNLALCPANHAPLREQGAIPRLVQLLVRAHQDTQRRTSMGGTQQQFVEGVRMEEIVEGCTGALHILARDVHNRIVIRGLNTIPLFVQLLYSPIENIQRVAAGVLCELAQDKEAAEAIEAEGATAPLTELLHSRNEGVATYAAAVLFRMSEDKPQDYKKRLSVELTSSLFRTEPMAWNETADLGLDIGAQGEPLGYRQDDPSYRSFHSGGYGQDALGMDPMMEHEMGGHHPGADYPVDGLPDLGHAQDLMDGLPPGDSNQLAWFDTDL

T1: NONO, endogenous in breast cancer cells (human (endogenous in MCF-7)) (UniProt Q15233)
T1 sequence: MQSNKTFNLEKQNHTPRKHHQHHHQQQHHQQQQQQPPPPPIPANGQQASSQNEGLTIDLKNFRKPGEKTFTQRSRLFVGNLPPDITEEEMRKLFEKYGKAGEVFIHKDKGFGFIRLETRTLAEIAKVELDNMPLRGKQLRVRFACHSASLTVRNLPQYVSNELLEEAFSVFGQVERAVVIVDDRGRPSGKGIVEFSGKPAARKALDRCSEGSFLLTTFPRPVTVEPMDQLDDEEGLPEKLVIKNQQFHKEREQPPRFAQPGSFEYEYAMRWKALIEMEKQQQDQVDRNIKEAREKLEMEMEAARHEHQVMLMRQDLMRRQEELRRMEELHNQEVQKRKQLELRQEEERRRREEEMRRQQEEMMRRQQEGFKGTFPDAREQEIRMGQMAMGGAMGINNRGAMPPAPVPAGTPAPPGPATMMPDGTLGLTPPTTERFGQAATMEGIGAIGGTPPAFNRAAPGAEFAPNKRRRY


How the values were obtained:
[1] = molecular target: T1, NONO, endogenous in breast cancer cells (human (endogenous in MCF-7)); assay: co-IP; anti-NONO (mouse IgG control) on protein G Dynabeads; lysate in 50 mM HEPES, 150 mM NaCl, 1% NP-40, 2 mM EDTA; overnight at 4 °C; Western blot
[2] = molecular target: c-Jun, in yeast two-hybrid (UniProt P05412); assay: two-hybrid; NONO in pGADT7 (Y187) mated with pGBKT7 constructs (Y2H Gold); diploids selected on SD/-Leu/-Trp, interaction read as growth on SD/-Leu/-Trp/-His/-Ade

| binding [1] | binding [2] | Molecule |
| --- | --- | --- |
| binds |  | c-Jun, endogenous in MCF-7 cells (from UniProt P05412 1-331) |
| binds |  | β-catenin, endogenous in breast cancer cells (from UniProt P35222 1-781) |
|  | binds | Non-POU domain-containing octamer-binding protein (NONO), full-length human, in pGADT7 (protein, UniProt Q15233 1-471) MQSNKTFNLEKQNHTPRKHHQHHHQQQHHQQQQQQPPPPPIPANGQQASSQNEGLTIDLKNFRKPGEKTFTQRSRLFVGNLPPDITEEEMRKLFEKYGKAGEVFIHKDKGFGFIRLETRTLAEIAKVELDNMPLRGKQLRVRFACHSASLTVRNLPQYVSNELLEEAFSVFGQVERAVVIVDDRGRPSGKGIVEFSGKPAARKALDRCSEGSFLLTTFPRPVTVEPMDQLDDEEGLPEKLVIKNQQFHKEREQPPRFAQPGSFEYEYAMRWKALIEMEKQQQDQVDRNIKEAREKLEMEMEAARHEHQVMLMRQDLMRRQEELRRMEELHNQEVQKRKQLELRQEEERRRREEEMRRQQEEMMRRQQEGFKGTFPDAREQEIRMGQMAMGGAMGINNRGAMPPAPVPAGTPAPPGPATMMPDGTLGLTPPTTERFGQAATMEGIGAIGGTPPAFNRAAPGAEFAPNKRRRY |
